No constants are given. Whether binding was seen depends on the method and setting. In cells and extracts the contact can be indirect. Some entries that bind do so weakly or less than the wild type.
Legend:
V5-tagged CUL3 = V5-tagged CUL3 (UniProt Q13618); assay: co-IP; 293FT cells cotransfected, lysed 72 h posttransfection; lysates precleared with protein A/G agarose beads (4°C, 4 h); CUL-V5 precipitated with 1 μg anti-V5 antibody overnight and protein A/G agarose beads; five washes; Western blot
[1] = biological target: V5-tagged CUL2 (cullin 2) (UniProt Q13617); assay: as above
[2] = biological target: V5-tagged CUL2 (cullin 2) (UniProt Q13617); assay: co-IP
[3] = biological target: hemagglutinin (HA)-tagged APOBEC3A (human) (UniProt P31941); assay: co-IP

Amino acid sequences for entries named in this document (tags omitted).
UniProt Q13617: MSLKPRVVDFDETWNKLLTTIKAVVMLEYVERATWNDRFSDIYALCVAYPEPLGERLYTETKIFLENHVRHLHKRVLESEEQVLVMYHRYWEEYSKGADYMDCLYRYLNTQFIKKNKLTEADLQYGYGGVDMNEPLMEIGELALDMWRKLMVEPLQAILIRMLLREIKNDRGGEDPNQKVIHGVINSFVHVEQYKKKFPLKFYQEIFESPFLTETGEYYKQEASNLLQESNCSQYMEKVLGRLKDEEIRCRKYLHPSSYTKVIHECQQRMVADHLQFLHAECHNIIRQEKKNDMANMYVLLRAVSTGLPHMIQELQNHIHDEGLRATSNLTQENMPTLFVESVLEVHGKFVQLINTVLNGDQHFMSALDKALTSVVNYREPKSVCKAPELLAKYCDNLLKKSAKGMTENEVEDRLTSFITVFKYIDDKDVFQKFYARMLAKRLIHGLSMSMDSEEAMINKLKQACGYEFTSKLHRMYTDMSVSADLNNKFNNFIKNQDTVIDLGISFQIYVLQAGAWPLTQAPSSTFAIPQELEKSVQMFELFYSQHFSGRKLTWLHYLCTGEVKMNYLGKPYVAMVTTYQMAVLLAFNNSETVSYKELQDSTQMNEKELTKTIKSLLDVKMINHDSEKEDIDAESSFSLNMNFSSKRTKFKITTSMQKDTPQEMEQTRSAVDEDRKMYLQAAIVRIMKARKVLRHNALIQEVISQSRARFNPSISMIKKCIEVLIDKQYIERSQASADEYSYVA
UniProt P31941: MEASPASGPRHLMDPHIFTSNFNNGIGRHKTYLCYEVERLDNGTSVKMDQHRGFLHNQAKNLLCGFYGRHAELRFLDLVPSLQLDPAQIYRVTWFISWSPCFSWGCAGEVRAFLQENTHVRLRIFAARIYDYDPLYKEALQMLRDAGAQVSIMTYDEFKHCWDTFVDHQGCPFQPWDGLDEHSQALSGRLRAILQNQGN
UniProt P06788: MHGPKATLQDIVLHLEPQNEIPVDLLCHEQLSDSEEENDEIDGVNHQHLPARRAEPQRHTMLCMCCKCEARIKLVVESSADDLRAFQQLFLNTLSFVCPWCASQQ
UniProt P03129: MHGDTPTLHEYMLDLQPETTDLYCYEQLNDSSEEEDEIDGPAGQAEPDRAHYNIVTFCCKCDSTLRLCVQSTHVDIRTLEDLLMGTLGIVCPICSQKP

Substance | binding (V5-tagged CUL3) | binding [1] | binding [2] | binding [3]
HPV18 E7 (from UniProt P06788 1-105) | binds weakly | no binding |  | 
hemagglutinin (HA)-tagged APOBEC3A (from UniProt P31941 1-199) |  |  | binds | 
HPV16 E7 (wild type) (from UniProt P03129 1-98) |  | binds |  | no binding
